Results reported in publication PMC10914257.

Legend:
Experiment in all cases: two-hybrid; clones in pGADT7 and pGBKT7 in yeast strain AH109; growth on SD-Ade-Leu-Trp-His or SD-Leu-Trp-His plates with 3-amino-1,2,4-triazole, 5 days at 30°C
[1] = biological target: T1, Cep131-N1 (1-480 aa) (Drosophila) (UniProt A1Z7Z9)
T1 sequence: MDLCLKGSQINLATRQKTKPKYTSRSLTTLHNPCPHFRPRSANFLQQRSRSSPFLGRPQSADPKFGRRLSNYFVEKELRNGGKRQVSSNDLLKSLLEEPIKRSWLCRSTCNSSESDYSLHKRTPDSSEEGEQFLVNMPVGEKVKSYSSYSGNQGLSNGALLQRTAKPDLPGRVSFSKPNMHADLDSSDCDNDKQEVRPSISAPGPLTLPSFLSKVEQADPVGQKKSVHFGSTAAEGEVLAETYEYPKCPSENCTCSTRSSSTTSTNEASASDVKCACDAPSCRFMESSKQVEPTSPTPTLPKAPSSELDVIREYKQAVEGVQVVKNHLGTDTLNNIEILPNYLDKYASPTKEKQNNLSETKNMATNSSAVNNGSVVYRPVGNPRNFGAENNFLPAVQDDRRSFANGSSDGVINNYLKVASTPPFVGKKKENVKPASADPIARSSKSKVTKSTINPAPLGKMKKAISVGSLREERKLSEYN

[2] = biological target: T2, Cep131-M1 (481-781 aa) (Drosophila) (UniProt A1Z7Z9)
T2 sequence: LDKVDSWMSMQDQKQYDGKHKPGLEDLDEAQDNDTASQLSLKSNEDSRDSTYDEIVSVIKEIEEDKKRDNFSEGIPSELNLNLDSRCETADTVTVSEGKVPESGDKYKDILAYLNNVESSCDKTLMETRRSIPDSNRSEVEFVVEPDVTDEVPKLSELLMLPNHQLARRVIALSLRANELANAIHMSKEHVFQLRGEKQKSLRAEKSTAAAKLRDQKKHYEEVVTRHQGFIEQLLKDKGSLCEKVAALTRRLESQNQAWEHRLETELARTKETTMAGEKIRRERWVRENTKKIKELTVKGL

[3] = biological target: T3, Cep131-C1 (782-1114 aa) (Drosophila) (UniProt A1Z7Z9)
T3 sequence: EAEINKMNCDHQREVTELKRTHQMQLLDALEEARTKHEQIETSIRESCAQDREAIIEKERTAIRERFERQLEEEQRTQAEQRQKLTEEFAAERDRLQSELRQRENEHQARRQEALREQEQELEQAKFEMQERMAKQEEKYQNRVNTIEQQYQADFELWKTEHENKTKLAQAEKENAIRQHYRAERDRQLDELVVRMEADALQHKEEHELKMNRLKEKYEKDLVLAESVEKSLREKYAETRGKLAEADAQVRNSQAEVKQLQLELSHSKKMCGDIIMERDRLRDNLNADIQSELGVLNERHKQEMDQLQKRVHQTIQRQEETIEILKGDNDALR

[4] = biological target: T4, Cep131-FL (1-1114 aa) (Drosophila) (UniProt A1Z7Z9)
T4 sequence: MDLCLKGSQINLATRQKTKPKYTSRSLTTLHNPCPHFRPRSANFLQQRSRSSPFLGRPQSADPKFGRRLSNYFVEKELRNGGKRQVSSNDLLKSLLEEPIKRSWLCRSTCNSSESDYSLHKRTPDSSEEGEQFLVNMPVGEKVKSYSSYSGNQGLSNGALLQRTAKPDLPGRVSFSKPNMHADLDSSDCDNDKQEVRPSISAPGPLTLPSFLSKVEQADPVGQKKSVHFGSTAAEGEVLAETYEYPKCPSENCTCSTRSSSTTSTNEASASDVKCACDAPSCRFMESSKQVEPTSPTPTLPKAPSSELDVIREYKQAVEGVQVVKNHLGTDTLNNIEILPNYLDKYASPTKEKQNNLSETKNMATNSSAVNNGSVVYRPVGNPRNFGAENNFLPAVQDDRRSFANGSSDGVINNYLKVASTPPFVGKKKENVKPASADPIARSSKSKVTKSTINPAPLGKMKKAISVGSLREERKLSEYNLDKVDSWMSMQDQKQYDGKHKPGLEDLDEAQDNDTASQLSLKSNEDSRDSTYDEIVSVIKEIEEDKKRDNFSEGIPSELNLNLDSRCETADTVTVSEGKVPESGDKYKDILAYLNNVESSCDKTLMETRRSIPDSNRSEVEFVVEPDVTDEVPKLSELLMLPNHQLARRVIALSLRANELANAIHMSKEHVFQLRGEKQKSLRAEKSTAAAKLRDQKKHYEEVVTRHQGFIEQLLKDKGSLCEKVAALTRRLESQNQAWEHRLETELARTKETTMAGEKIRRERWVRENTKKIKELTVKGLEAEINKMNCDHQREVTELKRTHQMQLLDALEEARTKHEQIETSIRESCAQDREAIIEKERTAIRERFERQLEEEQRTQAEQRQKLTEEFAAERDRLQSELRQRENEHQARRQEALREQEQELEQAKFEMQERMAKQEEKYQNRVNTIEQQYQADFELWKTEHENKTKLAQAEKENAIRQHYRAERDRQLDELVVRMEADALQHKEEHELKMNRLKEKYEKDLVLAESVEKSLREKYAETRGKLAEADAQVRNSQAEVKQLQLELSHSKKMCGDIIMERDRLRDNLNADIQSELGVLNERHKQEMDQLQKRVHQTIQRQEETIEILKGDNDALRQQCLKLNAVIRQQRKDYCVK

| binding [1] | binding [2] | binding [3] | binding [4] | Substance |
| --- | --- | --- | --- | --- |
| binds | no binding | binds | binds | Cep162-C (448-897 aa), yeast two-hybrid (Drosophila) (domain or fragment) |
| – | – | – | binds | Cep162-FL (from UniProt Q9W474) |
| – | – | – | no binding | Cep162-N (1-447 aa), yeast two-hybrid (Drosophila) (domain or fragment) |

These are yes or no findings as the source states them, for the method shown. For part of these data: Binding can be weak; no strength is given.
